Publication PMC6294004
Results are given in words; binding and its absence hold for the method and conditions named. In cells and extracts the contact can be indirect. For some of these results: A result given as binding can be weak or reduced; the word gives no strength. For some of these results: Where a sequence is shown, tags or fusion partners need not be part of it.

Key:
Experiment in all cases: pull-down; GST or GST fusion protein on glutathione Sepharose 4B beads; pull-down buffer 20 mM Tris pH 7.5, 150 mM NaCl, 0.5 M EDTA, 10% glycerol, 0.1% Triton X100, 1 mM DTT; blot with anti-GST or anti-MBP; proteins from E. coli, bacterial lysates prepared; 'purified recombinant GST-fusion proteins' said for Fig. 7a
GST-IFT140 (Drosophila) = molecular target: GST-IFT140 (Drosophila)
GST-IFT144 (Drosophila) = molecular target: GST-IFT144 (Drosophila)
GST-Klp64D (Drosophila) = molecular target: GST-Klp64D (Drosophila)

binding (GST-IFT140 (Drosophila)) | binding (GST-IFT144 (Drosophila)) | binding (GST-Klp64D (Drosophila)) | Binder
binds | no binding | no binding | Arm34-87 (domain or fragment, UniProt P18824 34-87) MWQQNSYLGDSGIHSGAVTQVPSLSGKEDEEMEGDPLMFDLDTGFPQNFTQDQV
no binding |  |  | MBP-Klp61F (protein, UniProt P46863 1-1066) MDISGGNTSRQPQKKSNQNIQVYVRVRPLNSRERCIRSAEVVDVVGPREVVTRHTLDSKLTKKFTFDRSFGPESKQCDVYSVVVSPLIEEVLNGYNCTVFAYGQTGTGKTHTMVGNETAELKSSWEDDSDIGIIPRALSHLFDELRMMEVEYTMRISYLELYNEELCDLLSTDDTTKIRIFDDSTKKGSVIIQGLEEIPVHSKDDVYKLLEKGKERRKTATTLMNAQSSRSHTVFSIVVHIRENGIEGEDMLKIGKLNLVDLAGSENVSKAGNEKGIRVRETVNINQSLLTLGRVITALVDRAPHVPYRESKLTRLLQESLGGRTKTSIIATISPGHKDIEETLSTLEYAHRAKNIQNKPEVNQKLTKKTVLKEYTEEIDKLKRDLMAARDKNGIYLAEETYGEITLKLESQNRELNEKMLLLKALKDELQNKEKIFSEVSMSLVEKTQELKKTEENLLNTKGTLLLTKKVLTKTKRRYKEKKELVASHMKTEQVLTTQAQEILAAADLATDDTHQLHGTIERRRELDEKIRRSCDQFKDRMQDNLEMIGGSLNLYQDQQAALKEQLSQEMVNSSYVSQRLALNSSKSIEMLKEMCAQSLQDQTNLHNKLIGEVMKISDQHSQAFVAKLMEQMQQQQLLMSKEIQTNLQVIEENNQRHKAMLDSMQEKFATIIDSSLQSVEEHAKQMHKKLEQLGAMSLPDAEELQNLQEELANERALAQQEDALLESMMMQMEQIKNLRSKNSISMSVHLNKMEESRLTRNHRIDDIKSGIQDYQKLGIEASQSAQAELTSQMEAGMLCLDQGVANCSMLQVHMKNLNQKYEKETNENVGSVRVHHNQVEIICQESKQQLEAVQEKTEVNLEQMVDARQQLITEDRQRFIGHATVATDLVQESNRQFSEHAEHQRQQLQICEQELVRFQQSELKTYAPTGTTPSKRDFVYPRTLVATSPHQEIVRRYRQELDWSDLDTTATIDECSEGEHDVSMHSVQELSETETIMNSTPIEPVDGVTVKRGCGTTRNSNSNALKPPVATGGKRSSSLSRSLTPSKTSPRGSPAFVRHNKENVA
